Source: patent US20030216563A1
These are yes or no findings as the source states them, for the method shown. In cells and extracts the contact can be indirect. Some results given as binding are weak or reduced against the parent protein; the word gives no strength.

How the values were obtained:
[1] = target: GST:Weel^70 (Schizosaccharomyces pombe); experiment: GSH-Sepharose pull-down and kinase assays
[2] = target: GST:Weel^70 (Schizosaccharomyces pombe); experiment: GSH-Sepharose pull-down from S. pombe lysates, assay of associated kinase activity

binding [1]: binds
binding [2]: binds
B1: Cds1 (enzyme, Schizosaccharomyces pombe, UniProt Q09170 1-460, looked up)
chain: MEEPEEATQATQEAPLHVSQNIAKQVVNNENVFMKLVMTRMLDGKTEVIPLTTDVHNGFWRFGRHKSCEVVLNGPRVSNFHFEIYQGHRNDSDESENVVFLHDHSSNGTFLNFERLAKNSRTILSNGDEIRIGLGVPKDEISFLCQVPVKHSRDSQKNMIKSENSHYEIIRTLGSGTFAVVKLAVEVNSGKWYAIKIINKRKILLTSSEKRATEMFQREIDILKSLHHPGVVQCHEIFENDDELFIVMEYVEGGDLMDFLIANGSIDEQDCKPLLKQLLETLLHLHKQGVTHRDIKPENILITNDFHLKISDFGLAKVIHGTGTFLETFCGTMGYLAPEVLKSKNVNLDGGYDDKVDIWSLGCVLYVMLTASIPFASSSQAKCIELISKGAYPIEPLLENEISEEGIDLINRMLEINPEKRISESEALQHPWFYTVSTHEHRTPPSSSEHEATEQLNSSS
